Hit rate of the full screen: of about 390,000 compounds, about 4,000 (1%) were called active. Inconclusive results, whose numbers are uncertain, are shown with a selection of clear calls. The call rests on the fitted dose curve; in most records, active means well fitted inhibition curve with a large enough effect; inconclusive means small, poorly fitted or top-dose-only effect, or another doubt; inactive means no such curve, though single readings can be large or run the other way. Potencies of inconclusive entries are doubtful fits and often do not repeat.
The compounds below were run against DNA polymerase iota (Homo sapiens) (UniProt Q9UNA4) (assay: qHTS for Inhibitors of Polymerase Iota). Conditions: Pol iota fluorescent replication assay, 10 min; series mostly up to 115 µM.
How it was run: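 Fluorescent replication assay read twice, at 0 min and 10 min after adding 50 nM (final) substrate. Enzyme (10 nM) and compounds were first incubated 15 min at room temperature; enzyme-free buffer wells were negative controls.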
Potency means the concentration at half of the fitted maximal effect.

Protein sequences, listed by entry. Tags and fused reporters are not part of them. Lines headed by an entry give the natural chain unless they say otherwise; changes in a name come on top.
UniProt Q9UNA4: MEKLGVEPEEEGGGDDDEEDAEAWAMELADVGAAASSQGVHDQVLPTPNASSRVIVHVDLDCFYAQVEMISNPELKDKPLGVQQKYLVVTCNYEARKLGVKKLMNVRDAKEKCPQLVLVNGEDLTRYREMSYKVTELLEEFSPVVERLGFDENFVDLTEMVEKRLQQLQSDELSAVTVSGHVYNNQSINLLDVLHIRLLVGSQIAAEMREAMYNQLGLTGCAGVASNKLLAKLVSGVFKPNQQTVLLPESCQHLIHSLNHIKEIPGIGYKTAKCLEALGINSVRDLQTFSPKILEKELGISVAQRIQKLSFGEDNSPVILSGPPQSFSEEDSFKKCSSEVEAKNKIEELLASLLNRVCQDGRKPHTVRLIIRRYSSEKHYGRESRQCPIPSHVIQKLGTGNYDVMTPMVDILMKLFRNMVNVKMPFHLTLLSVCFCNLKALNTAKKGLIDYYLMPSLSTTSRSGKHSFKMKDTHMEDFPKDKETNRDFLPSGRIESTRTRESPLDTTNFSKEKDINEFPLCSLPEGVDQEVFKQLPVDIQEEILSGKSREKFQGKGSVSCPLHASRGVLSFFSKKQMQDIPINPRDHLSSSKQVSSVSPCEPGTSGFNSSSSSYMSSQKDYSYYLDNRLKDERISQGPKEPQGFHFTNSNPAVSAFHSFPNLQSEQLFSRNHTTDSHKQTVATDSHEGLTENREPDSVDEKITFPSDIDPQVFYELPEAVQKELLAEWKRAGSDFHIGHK

Potency, active:
Cc1ccc(CNC(=O)CCS(=O)(=O)c2ccc(Br)cc2)cc1 15.8 µM

Potency, inconclusive:
COc1ncnc2c1N=C1CC(C)(C)CC(N)=C1S2 25.1 µM [inhibitor, single point], CC(OC(=O)c1ccc2ncsc2c1)C(=O)Nc1cccc(Cl)c1 (configuration not stated) 28.2 µM [inhibitor, single point], Cc1cc(SCC(=O)Nc2ccc(F)cc2F)nc(=O)[nH]1 10 µM [inhibitor, full curve, poor fit], O=S(=O)(Nc1ccc(-n2cccc2)cc1)c1ccc(Cl)cc1Cl 44.7 µM [inhibitor, partial curve], CCCCOC(C)n1cc(F)c(=O)[nH]c1=O (configuration not stated) 89.1 µM [inhibitor, partial curve, poor fit], COC(=O)Nc1ccc(S(=O)(=O)N2c3ccccc3CCC2C)cc1 (configuration not stated) 50.1 µM [inhibitor, partial curve, poor fit], COc1ccc2cc3cc(C(=O)NCc4ccco4)oc3nc2c1 20 µM [inhibitor, full curve, poor fit], Cn1c(=O)c2c(nc3sccn32)n(C)c1=O 5.62 µM [inhibitor, full curve], Cc1ccc(C(=O)Nc2nnc(COc3ccccc3)s2)cc1 89.1 µM [inhibitor, partial curve, poor fit], Cc1ccc(-c2csc(NS(=O)(=O)c3cccc(F)c3)n2)o1 12.6 µM [inhibitor, full curve, poor fit], CC1(c2ccccc2)NC(=O)N(CC(=O)N2CCN(S(=O)(=O)c3c(F)cccc3F)CC2)C1=O (configuration not stated) 100 µM [inhibitor, single point], C=CCN1CCN(C(c2ccc(Cl)cc2)c2nnnn2CCc2ccc(OC)c(OC)c2)CC1 (configuration not stated) 39.8 µM [inhibitor, single point], O=C1COc2ccc(-c3csc(NCC4CCCO4)n3)cc2N1 (configuration not stated) 39.8 µM [inhibitor, single point], CC(C)(C)C1CCc2c(sc3nc(-c4cc5cc(Cl)ccc5oc4=O)[nH]c(=O)c23)C1 (configuration not stated) 50.1 µM [inhibitor, partial curve, poor fit], Cc1ccc(C2CC(=O)NC(SCc3ccccc3)=C2C#N)cc1 (configuration not stated) 35.5 µM [inhibitor, single point], C=CCn1c(SCc2nc3ccccc3nc2C)nnc1-c1ccoc1C 15.8 µM [inhibitor, partial curve, poor fit], CCOc1ccc(NC(c2ccccc2)P(=O)(OC)OC)cc1 (configuration not stated) 7.08 µM [inhibitor, partial curve], Cn1c(Cn2nnc3ccccc32)nnc1SCC(N)=O 100 µM [inhibitor, single point], CCOC(=O)c1oc2ccccc2c1CN1CCN(c2ccccc2)CC1 31.6 µM [inhibitor, partial curve, poor fit], COc1ccc2nc(NC(=O)c3ccc([N+](=O)[O-])o3)sc2c1 14.1 µM [inhibitor, partial curve, poor fit], CCCNC(=O)C1=C(C)C(=O)OC12CCC(C)CC2 (configuration not stated) 20 µM [inhibitor, partial curve, poor fit], CC(=O)N1CCN(C(=O)CC2OC(=O)c3ccccc32)CC1 (configuration not stated) 2.51 µM [inhibitor, full curve, poor fit], CCc1ccc(S(=O)(=O)NC(=S)NC2CCCCC2)cc1 7.94 µM [inhibitor, partial curve, poor fit], CCC(C)[C@H](N)c1nnc(SCc2ccc(Cl)c(Cl)c2)o1 (some centres not stated) 20 µM [inhibitor, full curve, poor fit], CC1=C(C(=O)Nc2ccccc2)C(c2ccc(Cl)cc2)n2c(s/c(=C/c3cccc(OCC(=O)O)c3)c2=O)=N1 (configuration not stated) 20 µM [inhibitor, partial curve, poor fit], Cc1ccccc1/C=C\c1nc2ccccc2c(=O)[nH]1 31.6 µM [inhibitor, single point], Cc1cccc(/C(N)=N/OC(=O)N2c3ccccc3Sc3ccccc32)c1 39.8 µM [inhibitor, single point], Cc1c(Cl)c([N+](=O)[O-])nn1CC(=O)N1CCN(C23CC4CC(CC(C4)C2)C3)CC1 79.4 µM [inhibitor, single point], O=C(NCc1ccccc1)C1=C[C@@H](C2CCCCC2)C[C@@H](OCCCCO)O1 12.6 µM [inhibitor, partial curve, poor fit]

Potency, inactive:
O=C(CNC(=O)c1ccccc1)NCc1ccc(Cl)cc1, Cc1cc(Cl)ccc1NC(=O)CCC(=O)N/N=C/c1cc([N+](=O)[O-])ccc1O, Cc1cc(C)c2c(=O)[nH]c(SCC(=O)N3CCCCC3)nc2n1, CCN(CC)c1ccc(NC(=O)C2CCN(S(=O)(=O)c3c(C)noc3/C=C/c3ccccc3F)CC2)c(C)c1, CCn1c(CN2CCCCC2)nc2cc(NC(=O)COc3ccc(C(C)(C)C)cc3)ccc21, Cc1ccc(/C=N/NS(=O)(=O)c2ccc([N+](=O)[O-])cc2)o1, OC(CCN1CC2CCC(CC2)C1)(Cc1ccccc1)c1ccco1 (configuration not stated), Cc1ccc(C)c(Cn2c(=O)n(Cc3ccccc3)c(=O)c3sc4ccccc4c32)c1, CC(C)(C)c1ccc(-c2nnc(-c3ccccc3NC(=O)c3cccc(C(F)(F)F)c3)o2)cc1, COC(=O)C1=C(C)N(C2CCCCC2)C(=O)C1, CN(C(=O)CSc1ncnc2ccccc12)C1CCCCC1, CC(C)(C)OC(=O)N1CCC(c2c(C(=O)NCCN3CCOCC3)cnn2-c2ccc(F)cc2F)CC1

From PubChem BioAssay AID588590 (National Center for Advancing Translational Sciences (NCATS), 2011)
